Laboratory results as given in the supplement of paper PMC10849652.
The list shows a part of the results.

Amino acid sequences for entries named in this document (tags omitted). A change or cut given only in a name is not applied to a line headed by its entry.
UniProt Q8WYQ5: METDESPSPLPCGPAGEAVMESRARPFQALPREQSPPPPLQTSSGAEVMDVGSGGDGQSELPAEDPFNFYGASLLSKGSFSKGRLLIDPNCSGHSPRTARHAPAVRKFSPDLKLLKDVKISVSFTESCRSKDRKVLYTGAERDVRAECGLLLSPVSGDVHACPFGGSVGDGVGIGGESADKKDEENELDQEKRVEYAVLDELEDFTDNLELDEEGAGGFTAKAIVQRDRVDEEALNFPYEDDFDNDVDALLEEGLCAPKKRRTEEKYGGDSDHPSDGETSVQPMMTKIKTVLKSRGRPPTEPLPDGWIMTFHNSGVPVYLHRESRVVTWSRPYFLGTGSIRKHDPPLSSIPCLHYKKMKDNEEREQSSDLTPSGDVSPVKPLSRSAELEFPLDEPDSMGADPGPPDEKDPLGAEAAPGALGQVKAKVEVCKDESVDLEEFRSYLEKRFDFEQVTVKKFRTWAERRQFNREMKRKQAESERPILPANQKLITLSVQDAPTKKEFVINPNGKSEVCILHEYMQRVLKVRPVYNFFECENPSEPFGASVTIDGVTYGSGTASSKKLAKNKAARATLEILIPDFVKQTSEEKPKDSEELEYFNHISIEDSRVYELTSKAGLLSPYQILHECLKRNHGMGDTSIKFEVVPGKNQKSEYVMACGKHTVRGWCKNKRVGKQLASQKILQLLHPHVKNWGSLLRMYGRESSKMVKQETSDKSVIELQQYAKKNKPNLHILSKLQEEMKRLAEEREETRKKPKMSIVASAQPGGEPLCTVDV
UniProt Q6IAN0: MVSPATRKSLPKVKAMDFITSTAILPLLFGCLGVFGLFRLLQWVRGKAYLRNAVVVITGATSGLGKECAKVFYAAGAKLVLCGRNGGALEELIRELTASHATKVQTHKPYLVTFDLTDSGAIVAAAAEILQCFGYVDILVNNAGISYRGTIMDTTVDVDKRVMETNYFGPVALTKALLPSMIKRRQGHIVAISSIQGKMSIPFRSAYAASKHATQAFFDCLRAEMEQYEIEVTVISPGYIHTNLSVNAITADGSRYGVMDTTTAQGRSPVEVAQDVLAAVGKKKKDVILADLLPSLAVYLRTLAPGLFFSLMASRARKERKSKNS
UniProt Q8TCE6, whole entry, looked up: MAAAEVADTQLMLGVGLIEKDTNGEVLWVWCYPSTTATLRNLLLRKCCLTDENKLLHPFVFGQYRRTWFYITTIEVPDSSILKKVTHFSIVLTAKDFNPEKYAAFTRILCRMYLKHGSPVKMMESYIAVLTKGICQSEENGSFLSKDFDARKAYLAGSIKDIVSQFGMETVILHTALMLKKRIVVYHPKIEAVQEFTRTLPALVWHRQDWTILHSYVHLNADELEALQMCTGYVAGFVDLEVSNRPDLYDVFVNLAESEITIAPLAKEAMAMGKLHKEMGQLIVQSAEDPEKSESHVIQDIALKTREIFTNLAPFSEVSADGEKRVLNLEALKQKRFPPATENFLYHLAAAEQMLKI
UniProt P49366: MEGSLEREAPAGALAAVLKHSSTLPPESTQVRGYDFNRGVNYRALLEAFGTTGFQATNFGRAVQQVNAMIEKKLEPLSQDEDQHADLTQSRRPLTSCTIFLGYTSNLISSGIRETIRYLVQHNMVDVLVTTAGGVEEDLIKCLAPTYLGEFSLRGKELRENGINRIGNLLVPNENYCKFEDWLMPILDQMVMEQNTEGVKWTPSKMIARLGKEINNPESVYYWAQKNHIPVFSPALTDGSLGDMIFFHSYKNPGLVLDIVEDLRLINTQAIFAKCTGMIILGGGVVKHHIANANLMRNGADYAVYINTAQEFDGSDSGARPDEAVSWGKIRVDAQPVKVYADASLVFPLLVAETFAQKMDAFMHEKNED
UniProt Q9NUU7: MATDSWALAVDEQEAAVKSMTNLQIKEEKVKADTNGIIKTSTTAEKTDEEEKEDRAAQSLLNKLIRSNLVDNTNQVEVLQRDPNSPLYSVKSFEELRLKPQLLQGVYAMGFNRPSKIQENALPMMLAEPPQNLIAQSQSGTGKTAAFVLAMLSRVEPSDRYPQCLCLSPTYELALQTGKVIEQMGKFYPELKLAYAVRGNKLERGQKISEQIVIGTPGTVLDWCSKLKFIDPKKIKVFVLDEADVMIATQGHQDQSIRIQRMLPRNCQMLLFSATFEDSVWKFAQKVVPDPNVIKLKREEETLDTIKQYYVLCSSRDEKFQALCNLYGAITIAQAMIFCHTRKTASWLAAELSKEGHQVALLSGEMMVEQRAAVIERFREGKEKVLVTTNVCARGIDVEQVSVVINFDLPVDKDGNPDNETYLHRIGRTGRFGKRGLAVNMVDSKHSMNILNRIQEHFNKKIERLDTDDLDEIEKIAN
UniProt Q8IX18: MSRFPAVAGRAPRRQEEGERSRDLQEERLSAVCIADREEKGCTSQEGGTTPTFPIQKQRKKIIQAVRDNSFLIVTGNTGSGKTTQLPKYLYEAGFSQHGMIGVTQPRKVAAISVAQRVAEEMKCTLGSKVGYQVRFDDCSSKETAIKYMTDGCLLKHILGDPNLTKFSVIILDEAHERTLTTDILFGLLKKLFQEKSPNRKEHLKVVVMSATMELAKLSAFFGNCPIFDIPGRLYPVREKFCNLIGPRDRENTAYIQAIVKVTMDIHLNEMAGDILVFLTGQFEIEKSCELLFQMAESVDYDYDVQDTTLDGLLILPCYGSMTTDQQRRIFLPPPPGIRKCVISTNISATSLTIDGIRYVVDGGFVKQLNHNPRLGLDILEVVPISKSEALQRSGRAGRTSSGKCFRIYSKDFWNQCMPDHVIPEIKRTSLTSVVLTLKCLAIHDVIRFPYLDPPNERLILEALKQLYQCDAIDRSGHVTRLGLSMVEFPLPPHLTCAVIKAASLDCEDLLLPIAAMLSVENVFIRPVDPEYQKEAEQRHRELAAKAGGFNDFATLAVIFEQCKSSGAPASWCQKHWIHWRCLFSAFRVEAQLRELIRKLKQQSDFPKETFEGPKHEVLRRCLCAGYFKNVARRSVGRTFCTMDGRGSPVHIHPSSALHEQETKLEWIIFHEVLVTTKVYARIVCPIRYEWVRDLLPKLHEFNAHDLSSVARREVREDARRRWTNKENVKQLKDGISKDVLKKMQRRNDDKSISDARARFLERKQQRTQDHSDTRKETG
UniProt Q6ICB0: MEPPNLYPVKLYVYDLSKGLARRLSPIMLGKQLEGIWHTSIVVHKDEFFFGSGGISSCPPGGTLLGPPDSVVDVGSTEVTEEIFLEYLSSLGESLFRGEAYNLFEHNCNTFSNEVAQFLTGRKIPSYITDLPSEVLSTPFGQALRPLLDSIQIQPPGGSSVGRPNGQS
UniProt O15121: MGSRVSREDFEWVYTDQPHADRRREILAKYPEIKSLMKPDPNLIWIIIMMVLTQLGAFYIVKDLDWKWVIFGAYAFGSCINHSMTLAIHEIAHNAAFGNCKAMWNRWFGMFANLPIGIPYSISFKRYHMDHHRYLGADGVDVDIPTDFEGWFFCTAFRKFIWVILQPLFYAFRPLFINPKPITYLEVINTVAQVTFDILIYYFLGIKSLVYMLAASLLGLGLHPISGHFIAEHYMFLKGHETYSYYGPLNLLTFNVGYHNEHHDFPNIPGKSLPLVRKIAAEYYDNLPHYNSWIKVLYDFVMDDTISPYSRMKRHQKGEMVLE
UniProt P98153: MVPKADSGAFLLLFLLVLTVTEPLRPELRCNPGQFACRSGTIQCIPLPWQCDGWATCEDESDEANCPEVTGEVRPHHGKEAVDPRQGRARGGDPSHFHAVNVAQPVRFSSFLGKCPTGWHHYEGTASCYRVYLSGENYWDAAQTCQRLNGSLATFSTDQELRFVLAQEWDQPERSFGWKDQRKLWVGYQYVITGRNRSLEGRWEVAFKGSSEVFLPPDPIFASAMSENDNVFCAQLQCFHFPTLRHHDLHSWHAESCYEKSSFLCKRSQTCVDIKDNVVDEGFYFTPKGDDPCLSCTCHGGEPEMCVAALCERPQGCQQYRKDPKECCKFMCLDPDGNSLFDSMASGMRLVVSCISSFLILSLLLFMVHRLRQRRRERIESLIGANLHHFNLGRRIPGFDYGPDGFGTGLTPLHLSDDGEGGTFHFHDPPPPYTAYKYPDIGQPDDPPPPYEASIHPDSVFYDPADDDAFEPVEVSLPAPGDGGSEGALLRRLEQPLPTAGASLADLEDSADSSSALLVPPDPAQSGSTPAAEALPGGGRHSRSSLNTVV
UniProt Q02127: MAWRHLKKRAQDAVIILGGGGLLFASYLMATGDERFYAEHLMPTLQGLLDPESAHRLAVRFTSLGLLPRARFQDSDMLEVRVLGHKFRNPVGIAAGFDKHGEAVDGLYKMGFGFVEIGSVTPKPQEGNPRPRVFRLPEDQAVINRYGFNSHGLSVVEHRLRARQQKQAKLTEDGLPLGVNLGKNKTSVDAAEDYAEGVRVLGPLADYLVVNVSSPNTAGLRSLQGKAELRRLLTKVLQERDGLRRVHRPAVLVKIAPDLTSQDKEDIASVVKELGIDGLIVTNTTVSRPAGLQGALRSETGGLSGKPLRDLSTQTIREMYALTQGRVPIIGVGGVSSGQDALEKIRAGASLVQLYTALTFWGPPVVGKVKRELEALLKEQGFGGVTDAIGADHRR
UniProt Q9GZP9: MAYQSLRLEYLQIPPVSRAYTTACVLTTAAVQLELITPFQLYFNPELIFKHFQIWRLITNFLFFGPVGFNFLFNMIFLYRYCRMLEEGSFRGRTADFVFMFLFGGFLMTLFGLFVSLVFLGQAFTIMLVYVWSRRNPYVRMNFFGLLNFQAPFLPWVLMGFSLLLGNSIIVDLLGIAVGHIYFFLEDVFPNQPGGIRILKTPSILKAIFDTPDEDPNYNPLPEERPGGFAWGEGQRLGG
UniProt Q9UBM7: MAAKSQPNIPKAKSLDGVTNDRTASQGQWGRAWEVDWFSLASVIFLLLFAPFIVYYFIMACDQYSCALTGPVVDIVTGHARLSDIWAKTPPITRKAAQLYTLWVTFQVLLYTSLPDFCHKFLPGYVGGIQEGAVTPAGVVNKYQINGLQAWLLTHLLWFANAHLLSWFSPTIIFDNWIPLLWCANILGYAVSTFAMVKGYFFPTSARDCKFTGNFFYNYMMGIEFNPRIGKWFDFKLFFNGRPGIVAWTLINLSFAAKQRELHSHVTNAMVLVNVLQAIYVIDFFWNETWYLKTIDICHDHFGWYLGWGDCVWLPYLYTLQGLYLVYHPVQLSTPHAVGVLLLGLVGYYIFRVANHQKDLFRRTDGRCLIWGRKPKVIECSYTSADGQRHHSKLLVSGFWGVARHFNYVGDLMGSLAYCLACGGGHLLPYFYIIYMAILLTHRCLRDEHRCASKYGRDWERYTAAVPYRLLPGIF
UniProt O75911: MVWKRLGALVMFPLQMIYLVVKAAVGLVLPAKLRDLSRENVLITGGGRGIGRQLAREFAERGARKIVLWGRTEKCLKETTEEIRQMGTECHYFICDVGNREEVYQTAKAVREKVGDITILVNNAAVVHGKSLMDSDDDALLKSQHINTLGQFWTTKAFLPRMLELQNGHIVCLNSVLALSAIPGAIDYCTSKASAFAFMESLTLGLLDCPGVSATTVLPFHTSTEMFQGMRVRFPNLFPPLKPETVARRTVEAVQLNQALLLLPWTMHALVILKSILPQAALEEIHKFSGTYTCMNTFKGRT
UniProt Q7L014: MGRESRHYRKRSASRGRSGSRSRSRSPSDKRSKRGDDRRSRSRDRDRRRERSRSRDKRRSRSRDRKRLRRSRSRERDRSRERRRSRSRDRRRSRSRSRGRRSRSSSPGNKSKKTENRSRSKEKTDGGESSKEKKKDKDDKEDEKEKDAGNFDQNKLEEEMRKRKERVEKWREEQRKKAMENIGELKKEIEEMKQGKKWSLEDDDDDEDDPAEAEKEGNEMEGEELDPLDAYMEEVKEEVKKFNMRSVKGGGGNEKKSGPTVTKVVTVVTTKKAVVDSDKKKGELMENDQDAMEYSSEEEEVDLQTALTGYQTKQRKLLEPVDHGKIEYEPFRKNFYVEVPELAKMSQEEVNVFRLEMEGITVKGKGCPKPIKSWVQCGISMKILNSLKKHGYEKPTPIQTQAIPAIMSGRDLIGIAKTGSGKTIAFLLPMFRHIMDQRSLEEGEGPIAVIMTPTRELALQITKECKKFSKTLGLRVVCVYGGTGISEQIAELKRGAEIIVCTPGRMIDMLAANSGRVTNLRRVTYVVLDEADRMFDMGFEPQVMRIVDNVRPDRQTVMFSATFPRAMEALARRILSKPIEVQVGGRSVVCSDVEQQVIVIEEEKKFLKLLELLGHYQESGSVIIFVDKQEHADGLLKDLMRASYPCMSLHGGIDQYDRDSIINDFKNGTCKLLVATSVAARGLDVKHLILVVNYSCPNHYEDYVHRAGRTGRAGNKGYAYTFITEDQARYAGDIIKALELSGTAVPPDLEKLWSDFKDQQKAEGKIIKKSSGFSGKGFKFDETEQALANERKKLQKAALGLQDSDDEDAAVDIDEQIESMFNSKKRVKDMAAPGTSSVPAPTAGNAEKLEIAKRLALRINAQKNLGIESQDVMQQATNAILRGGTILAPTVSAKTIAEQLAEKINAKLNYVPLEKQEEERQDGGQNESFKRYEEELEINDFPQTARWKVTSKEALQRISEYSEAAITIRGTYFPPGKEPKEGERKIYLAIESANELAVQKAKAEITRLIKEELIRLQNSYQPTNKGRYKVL

How the values were obtained:
Experiment in all cases: log2 fold change, soluble protein after heating vs DMSO (PISA); higher = thermal stabilisation; K562 cells, 10 uM, 30 min; active = over 0.2 and 3.5 SD of the protein, either way, in both replicates (recomputed)
[1] = compound: C1=CC=C(C=C1)[C@H](COC2=CC3=C(C=C2)NC(=O)N3)NC(=O)C4=CC=CN(C4=O)CC5=CC(=C(C=C5)F)F
In short: (§1)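 Quantification of soluble protein used TMTpro 16plex LC-MS/MS, with channel sums equalised. Samples were the supernatant after 21,000xg for 90 min of pooled aliquots from K562 cells (2×10^6 cells/mL) treated with 10 μM compound for 30 min, heated for 3 min over 48°C-58°C, and extracted in PBS with 0.5% NP-40 at 4°C. Values, from duplicates, describe thermal stability against control samples on a log2 fold-change scale.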

[2] = compound: CC1=C(SC2=C1C(=N[C@H](C3=NN=C(N32)C)CC(=O)N)C4=CC=C(C=C4)Cl)C
In short: as §1

[3] = compound: CC1=C2C(=CC=C1)N=C(N(C2=O)C3=CC=CC=C3C)CN4C=NC5=C(N=CN=C54)N
In short: as §1

[4] = compound: Cc1sc2c(c1C)C(c1ccc(Cl)cc1)=N[C@@H](CC(=O)OC(C)(C)C)c1nnc(C)n1-2
In short: as §1

[5] = compound: c1ccc([C@@H]2C[C@H]2NC2CCNCC2)cc1
In short: as §1

Target | log2 fold change [1] | log2 fold change [2] | log2 fold change [3] | log2 fold change [4] | log2 fold change [5]
DICER1 (UniProt Q9UPY3) | inactive: -0.042 | inactive: 0.014 | inactive: -0.03 | inactive: 0.072 | inactive: -0.013
DHX38 (UniProt Q92620) | inactive: 0.018 | inactive: 0.021 | inactive: 0.028 | inactive: 0.035 | inactive: -0.017
DGCR8 (UniProt Q8WYQ5) | inactive: 0.018 | inactive: -0.132 | inactive: -0.015 | inactive: 0.208 | inactive: -0.011
DHRS7B (UniProt Q6IAN0) | inactive: 0.054 | inactive: 0.032 | inactive: -0.001 | inactive: -0.018 | inactive: -0.013
DENND10 (UniProt Q8TCE6) | inactive: 0.035 | inactive: 0.083 | inactive: 0.103 | inactive: 0.057 | inactive: -0.008
DHPS (UniProt P49366) | inactive: -0.014 | inactive: 0.013 | inactive: -0.014 | inactive: 0.013 | inactive: 0.081
DHRS7 (UniProt Q9Y394) | inactive: 0.046 | inactive: 0.006 | inactive: -0.005 | inactive: -0.008 | inactive: 0.026
DDX17 (UniProt Q92841) | inactive: -0.024 | inactive: -0.008 | inactive: 0.054 | inactive: 0.006 | inactive: 0.006
DDX19A (UniProt Q9NUU7) | inactive: -0.017 | inactive: 0.065 | inactive: 0.037 | inactive: -0.022 | inactive: -0.036
DHX15 (UniProt O43143) | inactive: 0.007 | inactive: 0.023 | inactive: -0.013 | inactive: -0.002 | inactive: -0.024
DHX40 (UniProt Q8IX18) | inactive: 0.026 | inactive: 0.101 | inactive: 0.072 | inactive: 0.093 | inactive: -0.022
DESI1 (UniProt Q6ICB0) | inactive: 0.094 | inactive: 0.091 | inactive: 0.021 | inactive: -0.264 | inactive: -0.06
DIABLO (UniProt Q9NR28) | inactive: 0.008 | inactive: 0.061 | inactive: -0.043 | inactive: 0.011 | inactive: -0.032
DEGS1 (UniProt O15121) | inactive: 0.083 | inactive: 0.04 | inactive: -0.001 | inactive: 0.122 | inactive: 0.052
DFFB (UniProt O76075) | inactive: -0.027 | inactive: 0.099 | inactive: 0.048 | inactive: 0.202 | inactive: 0.049
DGCR2 (UniProt P98153) | inactive: 0.074 | inactive: -0.048 | inactive: -0.03 | inactive: -0.005 | inactive: -0.059
DGAT1 (UniProt O75907) | inactive: -0.088 | inactive: 0.105 | inactive: 0.081 | inactive: -0.119 | inactive: 0.102
DHODH (UniProt Q02127) | inactive: 0.025 | inactive: 0.014 | inactive: 0.031 | inactive: -0.001 | inactive: 0.049
DMAC2L (UniProt Q99766) | inactive: -0.019 | inactive: 0.075 | inactive: 0.114 | inactive: -0.043 | inactive: -0.025
DERL2 (UniProt Q9GZP9) | inactive: -0.001 | inactive: -0.139 | inactive: 0.054 | inactive: -0.005 | inactive: 0.034
DHCR7 (UniProt Q9UBM7) | inactive: -0.061 | inactive: 0 | inactive: 0.093 | inactive: -0.186 | active: 1.06
DDX19B (UniProt Q9UMR2) | inactive: -0.038 | inactive: 0.072 | inactive: 0.027 | inactive: -0.046 | inactive: -0.014
DHRS3 (UniProt O75911) | inactive: 0.007 | inactive: 0.068 | inactive: 0.057 | inactive: 0.017 | inactive: -0.024
DDX46 (UniProt Q7L014) | inactive: -0.059 | inactive: 0.09 | inactive: 0.184 | inactive: -0.064 | inactive: 0
DMAC1 (UniProt Q96GE9) | inactive: 0.058 | inactive: -0.041 | inactive: 0.05 | inactive: -0.085 | inactive: 0.023

2 entries drawn at random from those above:
Target | log2 fold change [1] | log2 fold change [2] | log2 fold change [3] | log2 fold change [4] | log2 fold change [5]
DHCR7 (UniProt Q9UBM7) | inactive: -0.061 | inactive: 0 | inactive: 0.093 | inactive: -0.186 | active: 1.06
DMAC1 (UniProt Q96GE9) | inactive: 0.058 | inactive: -0.041 | inactive: 0.05 | inactive: -0.085 | inactive: 0.023
